A: 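Whole-cell assay for inhibitors of Mycobacterium tuberculosis growth, labelled Cornell in the record; the read-out is not stated. The concentration is filed as 10 mM, unlikely as a test dose, so the dose is not known. Higher means stronger inhibition (inferred from two other growth screens of the library). About 53,000 compounds were tested under these conditions; 1.7% (about 900) showed 50% or more at least once.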
B: 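Assay on Mycobacterium tuberculosis, filed only as a heat shock assay from Cornell; the read-out is not stated. The concentration is filed as 10 mM, unlikely as a test dose, so the dose is not known. Higher reads as stronger inhibition (inferred: compounds with an IC50 in retests scored well above the rest). Size under these conditions: about 69,000 compounds, about 930 of them at 50% or above in at least one test.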

Results are given as percent effect.
How 0% and 100% were set is not recorded. Most values in the screen are low, and negative values occur.
This is an unselected part of the compounds tested.

CCc1nc(CN(C)Cc2nc(-c3ccccc3Cl)oc2C)no1 gave A: 32.06%; B: -11.14%.
CCCOc1ccc(C(=O)Oc2cc(=O)n3cccc(C)c3n2)cc1 gave A: 24.49%; B: -6.168%.
Cn1ccc(CN2CCC(NC(=O)NC3CCCCC3)CC2)cc1=O gave A: 7.227%; B: 32.02%.
N#Cc1cccc(C(=O)N2CCCC(C(=O)CCc3ccccc3)C2)c1 (stereo not drawn) gave A: 18.39%; B: 20.83%.
O=C1CN(C(=O)CC2c3ccccc3CCc3ccccc32)CCN1 gave A: -5.966%; B: 11.61%.
CCCc1nnc(C(=O)N(C)Cc2ccc(OC)cc2)o1 gave B: -0.8003%.
CCn1nc(C)c(NC(=O)c2nnn(Cc3ccccc3)c2OC)c1C gave B: 8.738%.
Clc1ccc(CN2CCCC2Cn2cncn2)c2ncccc12 (stereo not drawn) gave B: -31.22%.
CCn1c(CN(C)CC(F)(F)F)nc2c(F)cccc21 gave B: -10.68%.
Cc1cnn(CCNCC(O)COc2cccc(C(F)(F)F)c2)c1 (stereo not drawn) gave A: 12.22%; B: 20.2%.
CC(CN1CCOCC1)n1cncc1-c1cnn(Cc2ccccc2)c1 (stereo not drawn) gave A: 41.65%; B: -4.609%.
Cc1ccc(C(=O)N2CCCC(CNS(=O)(=O)C(C)C)C2)cc1 (stereo not drawn) gave A: -4.484%; B: -15.15%.
Cc1nccn1-c1cc(CNC(=O)CC2CCCO2)ccn1 (stereo not drawn) gave A: -19.81%; B: -5.495%.
Cc1nn(C)c2ncnc(N3CCCC(C)(O)C3)c12 (stereo not drawn) gave A: -19.01%; B: 7.297%.
Cc1ccc(CSc2ncc(Br)c(C(=O)O)n2)cc1 gave A: 1.969%; B: -6.239%.
CCOc1ccccc1OC1CCN(C(=O)c2c[nH]nn2)CC1 gave B: -19.92%.
Cc1cccnc1NC(=O)c1ccc(-n2cncn2)nn1 gave A: -10.01%; B: -4.579%.
CC1=C(c2ccc(Cl)cc2)S(=O)(=O)N=C1N1CCc2ccccc21 gave A: 19.5%; B: 11.14%.
COCCC1(CO)CCCN(C(=O)c2cc(Cl)ccc2F)C1 (stereo not drawn) gave A: 10.68%; B: 7.306%.
O=c1cc(CN2CCC(CCc3ccc(O)cc3)CC2)[nH]c(=O)[nH]1 gave A: 16.17%; B: 21.73%.
CN(Cc1cn2c(n1)CN(c1ncc(F)cn1)CC2)Cc1ccco1.O=C(O)C(F)(F)F.O=C(O)C(F)(F)F gave B: 8.494%.
CN1CC(=O)N(c2cnn(C)c2)CC12CCN(C(=O)c1ccsc1)C2.O=C(O)C(F)(F)F (stereo not drawn) gave A: 8.361%; B: 3.754%.
Cc1cc(C)n(NC(=O)c2cccc3c2OCC3)c(=O)c1 gave A: 3.943%; B: -6.305%.
CC(C)c1cc(NCC2(CO)CCC2)ncn1 gave A: -4.447%; B: -19.69%.
Cc1ccc2c(c1)OC(C)(C)CC2NC(=O)C1CCN(S(C)(=O)=O)CC1 (stereo not drawn) gave A: 29.99%; B: 14.9%.
O=C(NCCn1ccc(-c2ccncc2)n1)c1ccncc1 gave A: -3.044%; B: 12.59%.
Cc1ccc(-c2noc(CN3CC(n4cc(C)cn4)C3)n2)cc1 gave A: 41.03%; B: 2.075%.
COc1cc(C(N)=O)c(N(C)S(C)(=O)=O)cc1OC gave A: -19.4%; B: 3.758%.
CCOCc1ccc(CNc2nc(OC)ncc2Cl)cc1 gave A: -0.6884%; B: -25.4%.
CCC(CO)NC(=O)c1cc(COc2ccc(OC)cc2Cl)[nH]n1 (stereo not drawn) gave A: 16.62%; B: -16.33%.
CN1CCC(N[C@@H]2CO[C@H](CNC(=O)Nc3ccccc3)[C@H]2O)CC1 gave A: 15.21%; B: -27.6%.
O=C(O)C(F)(F)F.[H][C@@]12CO[C@@H](CNC(=O)c3nccn3C)[C@]1([H])CCN(CCC)C2 gave A: -3.274%; B: -9.019%.
CCc1cccc(NC(=O)N2CCn3cnc(COC)c3C2)c1 gave B: -1.955%.
CC(C)(C(=O)NCc1ccccc1F)n1cc(Br)cn1 gave A: 2.376%; B: 2.097%.
COc1ccc(CN2C[C@@H](CN(C)CCO)[C@@H](CO)C2)cc1Cl gave A: 5.154%; B: -26.55%.
O=C(Cc1ccc2c(c1)OCCO2)N1CCN(c2cnccn2)CC1 gave B: -14.53%.
CCc1cc(NC(=O)c2cccc(OCC(F)(F)F)n2)[nH]n1 gave B: 22.49%.
CNC(=O)c1c(C)cccc1NCc1nnc(C2CC2)o1 gave A: 27.14%; B: 3.688%.
CC(C)N1CCOCC2(CCCN(C(=O)CCc3cccnc3)C2)C1.O=C(O)C(F)(F)F (stereo not drawn) gave B: -33.91%.
CC(C)COCCNC1CCN(c2ccccn2)CC1 gave A: 3.962%; B: -7.709%.
Cc1csc(N2CCCN(Cc3noc(C)n3)CC2)n1 gave B: -19.64%.
COc1ccc(CN(C)Cc2c(C)noc2C)c(Cl)c1OC gave A: -3.002%; B: -11.01%.
[H][C@@]12CN(c3ccc(C)nn3)C[C@@H](C(=O)NC3CCCC3)[C@]1([H])CCO2 gave A: 0.04255%; B: -3.07%.
COCC(=O)N1CCCC1c1nccnc1Nc1nc(C)cs1 (stereo not drawn) gave B: -13.4%.
CN(C)C(=O)CCS(=O)(=O)Cc1cc(Cl)c2c(c1)OCO2 gave A: -10.13%; B: -13.27%.

The last 3 entries again:

{"compound": "[H][C@@]12CN(c3ccc(C)nn3)C[C@@H](C(=O)NC3CCCC3)[C@]1([H])CCO2", "A": 0.04255, "B": -3.07}
{"compound": "COCC(=O)N1CCCC1c1nccnc1Nc1nc(C)cs1", "stereo": "stereo not drawn", "B": -13.4}
{"compound": "CN(C)C(=O)CCS(=O)(=O)Cc1cc(Cl)c2c(c1)OCO2", "A": -10.13, "B": -13.27}

Measurements from “University of Dundee, Small-Polar-MMV Screening Library” (2021), ChEMBL document CHEMBL3988442.